For one substance, binding results are on record in PMC12291482.

The chains behind the UniProt entries cited, without tags or fusion partners. Where a name states a change or a piece, a line headed by the entry shows the natural chain unless it says otherwise.
UniProt P05556: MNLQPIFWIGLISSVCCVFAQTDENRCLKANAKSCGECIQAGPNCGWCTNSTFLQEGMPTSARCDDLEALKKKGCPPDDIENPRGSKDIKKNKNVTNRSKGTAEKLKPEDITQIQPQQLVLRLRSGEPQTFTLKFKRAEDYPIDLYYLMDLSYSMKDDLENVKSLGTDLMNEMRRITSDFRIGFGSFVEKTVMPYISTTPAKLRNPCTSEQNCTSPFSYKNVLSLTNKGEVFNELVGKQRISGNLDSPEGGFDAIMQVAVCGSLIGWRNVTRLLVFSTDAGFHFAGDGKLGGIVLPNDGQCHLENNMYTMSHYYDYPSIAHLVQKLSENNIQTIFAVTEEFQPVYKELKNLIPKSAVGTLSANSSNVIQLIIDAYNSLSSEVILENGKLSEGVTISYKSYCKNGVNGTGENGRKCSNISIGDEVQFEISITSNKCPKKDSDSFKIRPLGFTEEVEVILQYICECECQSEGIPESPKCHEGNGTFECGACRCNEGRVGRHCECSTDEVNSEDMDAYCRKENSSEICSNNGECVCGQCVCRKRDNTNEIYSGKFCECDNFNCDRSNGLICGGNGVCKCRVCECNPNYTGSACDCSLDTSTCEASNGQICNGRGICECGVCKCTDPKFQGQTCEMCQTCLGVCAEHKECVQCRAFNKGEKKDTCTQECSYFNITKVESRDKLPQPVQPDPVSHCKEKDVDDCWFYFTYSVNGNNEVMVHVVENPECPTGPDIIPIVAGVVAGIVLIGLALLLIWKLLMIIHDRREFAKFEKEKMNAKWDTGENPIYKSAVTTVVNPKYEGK

The target in this test is T1, Melanoma cell adhesion molecule (MCAM) (UniProt P43121).
T1 sequence: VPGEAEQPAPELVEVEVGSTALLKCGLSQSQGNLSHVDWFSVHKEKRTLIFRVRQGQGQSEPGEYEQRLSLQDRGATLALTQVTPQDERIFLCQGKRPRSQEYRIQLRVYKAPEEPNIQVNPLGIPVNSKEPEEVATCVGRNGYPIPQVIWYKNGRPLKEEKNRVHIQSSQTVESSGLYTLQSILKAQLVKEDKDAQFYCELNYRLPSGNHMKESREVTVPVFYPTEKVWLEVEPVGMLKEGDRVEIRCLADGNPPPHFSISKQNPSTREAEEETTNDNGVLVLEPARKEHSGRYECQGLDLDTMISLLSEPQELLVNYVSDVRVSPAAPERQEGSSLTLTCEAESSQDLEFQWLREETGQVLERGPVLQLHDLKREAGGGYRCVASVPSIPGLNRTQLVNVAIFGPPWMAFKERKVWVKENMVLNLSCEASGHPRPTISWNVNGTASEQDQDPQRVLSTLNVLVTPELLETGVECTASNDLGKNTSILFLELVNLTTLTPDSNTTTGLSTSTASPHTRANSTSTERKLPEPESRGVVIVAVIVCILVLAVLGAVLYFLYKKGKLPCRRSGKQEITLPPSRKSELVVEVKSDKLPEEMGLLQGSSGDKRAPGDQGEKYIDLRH
Kind of test: co-IP; HCC827 cells; magnetic beads conjugated with FLAG and IgG, 4 °C overnight; bound proteins analysed by SDS-PAGE and Western blotting. On the technique in general: In western blotting, separated proteins are transferred to a membrane and probed.

No constants are given. Whether binding was seen depends on the method and setting. In cells and extracts the contact can be indirect. Some results given as binding are weak or reduced against the parent protein; the word gives no strength.

Consider “Integrin β1 (from UniProt P05556 21-798)”, for which the binding entry is listed as “binds”.
